Results published in publication PMC4673853.
No constants are given. Whether binding was seen depends on the method and setting. In cells and extracts the contact can be indirect. Some entries that bind do so weakly or less than the wild type. For part of these data: Sequences can lack the tags named with a protein.

By UniProt entry, the sequences of proteins in these tests, tags left out. Where a name states a change or a piece, a line headed by the entry shows the natural chain unless it says otherwise. Chains listed by the source or under a name are the forms on record and can include a tag or linker. Residues count along the entry.
UniProt Q9UKV8: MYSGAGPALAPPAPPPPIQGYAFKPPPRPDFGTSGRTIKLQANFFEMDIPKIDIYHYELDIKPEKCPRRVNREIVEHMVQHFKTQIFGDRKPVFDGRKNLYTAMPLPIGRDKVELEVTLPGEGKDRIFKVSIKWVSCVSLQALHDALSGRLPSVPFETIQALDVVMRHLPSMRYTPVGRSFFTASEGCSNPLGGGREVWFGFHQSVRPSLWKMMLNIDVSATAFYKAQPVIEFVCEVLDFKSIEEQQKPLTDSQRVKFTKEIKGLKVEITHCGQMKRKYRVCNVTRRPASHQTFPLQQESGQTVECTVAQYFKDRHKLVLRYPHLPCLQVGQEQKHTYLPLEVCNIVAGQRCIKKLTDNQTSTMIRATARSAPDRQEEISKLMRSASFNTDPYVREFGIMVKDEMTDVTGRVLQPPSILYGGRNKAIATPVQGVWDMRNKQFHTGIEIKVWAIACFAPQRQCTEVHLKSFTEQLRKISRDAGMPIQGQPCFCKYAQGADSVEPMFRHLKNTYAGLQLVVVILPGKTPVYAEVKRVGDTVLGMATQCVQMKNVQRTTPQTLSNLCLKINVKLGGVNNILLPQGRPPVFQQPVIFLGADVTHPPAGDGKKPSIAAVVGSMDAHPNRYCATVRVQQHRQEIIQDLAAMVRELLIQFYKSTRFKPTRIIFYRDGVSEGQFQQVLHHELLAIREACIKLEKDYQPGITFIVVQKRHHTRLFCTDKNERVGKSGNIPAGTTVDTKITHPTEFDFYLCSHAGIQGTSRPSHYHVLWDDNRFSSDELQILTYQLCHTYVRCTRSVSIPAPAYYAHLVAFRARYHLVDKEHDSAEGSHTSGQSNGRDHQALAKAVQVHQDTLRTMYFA
myc-Ago2-SIM2-mu (Q9UKV8, form named): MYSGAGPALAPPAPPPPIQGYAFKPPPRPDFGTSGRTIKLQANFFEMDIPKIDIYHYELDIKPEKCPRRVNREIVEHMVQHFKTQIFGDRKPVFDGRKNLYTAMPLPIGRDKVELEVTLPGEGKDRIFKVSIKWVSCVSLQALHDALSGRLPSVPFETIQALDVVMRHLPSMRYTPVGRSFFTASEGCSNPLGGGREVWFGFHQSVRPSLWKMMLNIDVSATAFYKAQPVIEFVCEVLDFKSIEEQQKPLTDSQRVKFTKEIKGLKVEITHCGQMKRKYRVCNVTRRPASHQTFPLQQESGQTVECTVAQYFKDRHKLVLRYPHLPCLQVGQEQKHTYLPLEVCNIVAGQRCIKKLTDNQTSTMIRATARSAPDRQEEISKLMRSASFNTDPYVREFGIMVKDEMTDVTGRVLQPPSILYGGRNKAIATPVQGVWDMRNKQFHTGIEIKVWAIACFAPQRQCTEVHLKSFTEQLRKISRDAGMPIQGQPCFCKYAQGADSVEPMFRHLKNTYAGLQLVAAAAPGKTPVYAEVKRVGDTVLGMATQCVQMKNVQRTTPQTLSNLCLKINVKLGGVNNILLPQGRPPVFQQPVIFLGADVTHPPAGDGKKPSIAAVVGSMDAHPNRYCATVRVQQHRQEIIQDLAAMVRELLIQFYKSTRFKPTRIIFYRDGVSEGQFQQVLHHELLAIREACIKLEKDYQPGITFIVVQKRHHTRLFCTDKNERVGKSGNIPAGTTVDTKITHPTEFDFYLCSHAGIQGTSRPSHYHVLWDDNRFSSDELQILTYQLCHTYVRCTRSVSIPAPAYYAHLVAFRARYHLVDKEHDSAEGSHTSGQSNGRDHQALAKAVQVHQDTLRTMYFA
myc-Ago2-SIM1-mu (Q9UKV8, form named): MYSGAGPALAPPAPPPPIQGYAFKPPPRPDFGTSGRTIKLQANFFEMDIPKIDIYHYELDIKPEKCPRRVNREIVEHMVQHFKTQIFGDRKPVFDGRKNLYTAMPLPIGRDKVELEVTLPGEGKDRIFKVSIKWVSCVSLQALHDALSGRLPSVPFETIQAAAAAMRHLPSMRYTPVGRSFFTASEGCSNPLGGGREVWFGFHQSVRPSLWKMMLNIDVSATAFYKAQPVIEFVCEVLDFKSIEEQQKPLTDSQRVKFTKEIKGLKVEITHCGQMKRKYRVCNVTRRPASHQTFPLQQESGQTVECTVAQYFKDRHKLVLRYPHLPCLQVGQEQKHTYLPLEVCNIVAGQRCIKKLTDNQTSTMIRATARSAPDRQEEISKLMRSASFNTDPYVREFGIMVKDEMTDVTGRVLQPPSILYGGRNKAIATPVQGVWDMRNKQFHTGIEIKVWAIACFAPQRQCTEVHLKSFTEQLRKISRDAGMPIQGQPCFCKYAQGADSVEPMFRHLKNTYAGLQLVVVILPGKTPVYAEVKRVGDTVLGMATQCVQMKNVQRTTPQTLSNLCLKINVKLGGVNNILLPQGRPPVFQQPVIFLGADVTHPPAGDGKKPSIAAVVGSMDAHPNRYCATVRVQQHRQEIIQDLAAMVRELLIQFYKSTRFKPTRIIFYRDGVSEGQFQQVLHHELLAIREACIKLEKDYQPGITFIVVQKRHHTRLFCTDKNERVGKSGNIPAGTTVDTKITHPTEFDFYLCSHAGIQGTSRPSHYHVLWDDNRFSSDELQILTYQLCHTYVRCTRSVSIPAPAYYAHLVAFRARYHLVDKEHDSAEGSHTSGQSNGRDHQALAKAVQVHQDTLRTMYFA
UniProt P19525: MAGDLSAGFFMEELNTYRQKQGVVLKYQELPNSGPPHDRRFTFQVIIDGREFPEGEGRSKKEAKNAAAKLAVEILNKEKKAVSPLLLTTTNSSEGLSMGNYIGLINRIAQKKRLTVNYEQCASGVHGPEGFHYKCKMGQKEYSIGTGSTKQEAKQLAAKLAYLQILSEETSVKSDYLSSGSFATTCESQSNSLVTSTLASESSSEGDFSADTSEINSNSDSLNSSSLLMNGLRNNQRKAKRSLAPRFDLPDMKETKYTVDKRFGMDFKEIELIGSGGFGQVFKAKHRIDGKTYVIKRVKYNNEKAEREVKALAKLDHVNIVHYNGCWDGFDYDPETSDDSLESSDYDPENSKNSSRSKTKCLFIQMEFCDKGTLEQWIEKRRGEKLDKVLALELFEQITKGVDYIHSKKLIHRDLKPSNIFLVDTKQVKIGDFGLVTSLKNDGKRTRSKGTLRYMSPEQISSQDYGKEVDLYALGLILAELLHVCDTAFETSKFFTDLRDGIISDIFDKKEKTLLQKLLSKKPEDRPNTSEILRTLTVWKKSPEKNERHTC
UniProt P63165, residues 1-97: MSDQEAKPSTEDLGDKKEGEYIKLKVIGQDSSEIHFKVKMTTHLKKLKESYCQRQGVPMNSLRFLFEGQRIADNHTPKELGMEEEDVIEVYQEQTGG

How the values were obtained:
[1] = target: GST-TARBP2 (expressed without pE1E2S1) (human) (UniProt Q15633); assay: pull-down; purified GST-TARBP2 (from E. coli with or without pE1E2S1) on Glutathione Sepharose 4B used to pull down the same amount of lysates of 293T cells transfected with myc-Ago2 WT, SIM1-mu or SIM2-mu; immunoblot with anti-Myc antibody; only the target purified
[2] = target: Flag-TARBP2-WT (human) (UniProt Q15633); assay: co-IP; 293T cells transfected with Flag-TARBP2-WT or -K52R with or without the partner's plasmid; lysates IP with anti-Flag antibody, western blot; in Fig. 7c cells treated with 100 uM H2O2 for 3 h before harvest
[3] = target: T1, Flag-TARBP2-K52R (human) (UniProt Q15633); assay: as above
T1 sequence: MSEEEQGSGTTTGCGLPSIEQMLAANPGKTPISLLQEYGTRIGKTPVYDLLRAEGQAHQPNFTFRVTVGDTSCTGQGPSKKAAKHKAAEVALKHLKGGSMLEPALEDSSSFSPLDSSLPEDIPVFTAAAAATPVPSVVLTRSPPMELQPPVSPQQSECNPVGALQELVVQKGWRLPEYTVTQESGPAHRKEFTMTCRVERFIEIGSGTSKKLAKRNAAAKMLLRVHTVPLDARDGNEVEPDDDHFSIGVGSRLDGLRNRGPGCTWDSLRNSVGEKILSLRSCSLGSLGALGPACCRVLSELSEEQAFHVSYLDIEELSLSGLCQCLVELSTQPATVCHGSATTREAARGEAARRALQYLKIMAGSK

[4] = target: myc-Ago2-SIM1-mu (UniProt Q9UKV8); assay: co-IP; 293T cells transfected with myc-Ago2-WT, -SIM1-mu or -SIM2-mu with/without GFP-SUMO1; IP with anti-Myc antibody, immunoblot with anti-GFP antibody
[5] = target: myc-Ago2-WT (UniProt Q9UKV8); assay: as above
[6] = target: myc-Ago2-SIM2-mu (UniProt Q9UKV8); assay: as above

| Substance | binding [1] | binding [3] | other results |
| --- | --- | --- | --- |
| myc-Ago2-SIM2-mu (from UniProt Q9UKV8 1-859) | binds | – | – |
| myc-Ago2-SIM1-mu (from UniProt Q9UKV8 1-859) | binds | – | – |
| HA-PKR (from UniProt P19525 1-551) | – | binds | binding [2]: binds |
| myc-Ago2-WT (from UniProt Q9UKV8 1-859) | – | binds | – |
| GFP-SUMO1 (from UniProt P63165 1-97) | – | – | binding [4]: binds; binding [5]: binds; binding [6]: binds |
| endogenous Ago2 (293T) (from UniProt Q9UKV8 1-859) | – | binds | – |
